From article PMC3540053 come the findings set out here.

Substitutions are numbered along the chain they refer to. Results are given in words; binding and its absence hold for the method and conditions named.

Holding throughout (test): two-hybrid; OsCOIs as baits in pGBKT7, OsJAZs or JAZs as preys in pGADT7, co-transformed into S. cerevisiae AH109; growth on SD without Ade, His, Leu and Trp (QDO) with 100 µM coronatine, 7 days; graded strong (+++), medium (++), weak (+), undetectable (−)
The target of one experiment is T1, OsCOI1b (Oryza sativa) (UniProt Q60EH4).
T1 sequence: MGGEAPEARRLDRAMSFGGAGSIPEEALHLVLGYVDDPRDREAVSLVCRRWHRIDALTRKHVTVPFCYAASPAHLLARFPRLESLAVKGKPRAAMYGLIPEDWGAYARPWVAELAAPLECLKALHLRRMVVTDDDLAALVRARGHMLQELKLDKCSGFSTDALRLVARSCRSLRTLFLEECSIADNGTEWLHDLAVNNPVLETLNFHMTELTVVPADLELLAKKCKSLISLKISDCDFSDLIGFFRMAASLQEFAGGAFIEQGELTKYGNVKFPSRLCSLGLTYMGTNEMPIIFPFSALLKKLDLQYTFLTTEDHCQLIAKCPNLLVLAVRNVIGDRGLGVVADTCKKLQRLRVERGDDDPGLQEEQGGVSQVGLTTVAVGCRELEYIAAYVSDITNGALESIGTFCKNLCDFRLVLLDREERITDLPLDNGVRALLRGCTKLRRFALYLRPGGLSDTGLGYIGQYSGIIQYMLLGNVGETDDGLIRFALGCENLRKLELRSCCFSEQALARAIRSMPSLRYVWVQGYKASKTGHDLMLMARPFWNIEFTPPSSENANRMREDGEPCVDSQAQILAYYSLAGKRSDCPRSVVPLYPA

Experiment [1] concerns the target T2, OsCOI1a(N475Y) (Oryza sativa) (UniProt Q6Y9P5).
T2 sequence: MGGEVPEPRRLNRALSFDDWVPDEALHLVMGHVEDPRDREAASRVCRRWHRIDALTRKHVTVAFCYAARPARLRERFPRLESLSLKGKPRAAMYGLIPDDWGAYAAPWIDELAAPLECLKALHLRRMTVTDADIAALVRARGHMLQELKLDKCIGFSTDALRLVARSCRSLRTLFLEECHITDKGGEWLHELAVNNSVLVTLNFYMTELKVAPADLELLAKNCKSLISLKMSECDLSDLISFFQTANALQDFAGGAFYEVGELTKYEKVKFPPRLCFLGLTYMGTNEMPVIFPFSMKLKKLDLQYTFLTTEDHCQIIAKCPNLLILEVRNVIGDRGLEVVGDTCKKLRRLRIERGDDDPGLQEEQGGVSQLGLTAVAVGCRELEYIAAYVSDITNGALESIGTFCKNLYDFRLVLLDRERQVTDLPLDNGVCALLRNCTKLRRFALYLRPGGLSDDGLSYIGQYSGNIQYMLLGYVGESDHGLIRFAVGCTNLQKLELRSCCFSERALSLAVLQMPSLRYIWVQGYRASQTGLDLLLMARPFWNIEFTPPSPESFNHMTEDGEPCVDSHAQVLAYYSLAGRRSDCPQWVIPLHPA

The next experiment concerns the target T3, OsCOI2 (Oryza sativa) (UniProt Q84QA7).
T3 sequence: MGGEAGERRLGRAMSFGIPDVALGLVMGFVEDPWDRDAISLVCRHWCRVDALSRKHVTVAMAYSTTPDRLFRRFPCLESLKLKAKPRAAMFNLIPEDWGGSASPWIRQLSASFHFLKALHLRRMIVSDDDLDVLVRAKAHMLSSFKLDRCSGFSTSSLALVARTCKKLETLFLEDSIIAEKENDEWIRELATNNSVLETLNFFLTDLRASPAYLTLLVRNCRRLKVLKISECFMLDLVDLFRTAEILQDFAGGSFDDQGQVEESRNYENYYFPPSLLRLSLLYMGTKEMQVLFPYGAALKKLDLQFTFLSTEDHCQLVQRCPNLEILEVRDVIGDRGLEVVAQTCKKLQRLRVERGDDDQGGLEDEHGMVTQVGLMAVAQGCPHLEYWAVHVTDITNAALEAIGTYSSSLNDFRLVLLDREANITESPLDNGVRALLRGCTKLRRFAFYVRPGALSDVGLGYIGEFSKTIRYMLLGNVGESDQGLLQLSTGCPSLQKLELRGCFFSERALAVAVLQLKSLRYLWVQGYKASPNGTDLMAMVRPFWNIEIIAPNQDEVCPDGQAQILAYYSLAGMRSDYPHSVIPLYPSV

For another experiment, the target named is T4, OsCOI1a (Oryza sativa) (UniProt Q6Y9P5).
T4 sequence: T2 sequence with Y475N

B1: OsJAZ11 (protein, UniProt Q7XV97 1-188)
chain: MSTRAPVELDFLGLRAAAADADDRHAKSGGSSASSSSSIRGMETSAIARIGPHLLRRVIAAAGPPPPPSTAPVPEEMPGAAAAAAPMTLFYNGSVAVFDVSHDKAEAIMRMATEATKAKGLARGNAIVGNFAKEPLTRTKSLQRFLSKRKERLTSLGPYQVGGPAAVGATTSTTTKSFLAKEEEHTAS
In the case of B1, the binding entry with OsCOI1b (Oryza sativa) is “no binding”.

B2: OsJAZ7 (protein, UniProt Q69P94 1-232)
chain: MAGRATATATAAGKDRSSFAVTCSLLSQFLKEKKGGGGGLQGLGLGLRPAPAAPPAAGAGGAFRPPPTTMNLLSGLDAPAVEVEPNTAETAADELPLIKAPADQQSDESASEAAGEKAQQLTIFYGGKVVVFENFPSTKVKDLLQIVSTGDGVDKNTGTAATQSLPRPAHNSLPDLPIARRNSLHRFLEKRKGRMNANAPYQANCTAAPSKQANGDKSWLGFGQEMTIKQEI
As to B2, the binding entry (in experiment [1]; with OsCOI2 (Oryza sativa); in the experiment with OsCOI1a (Oryza sativa)) was “no binding” throughout.
